According to US7365239:
No constants are given. Whether binding was seen depends on the method and setting. For some of these results: In cells and extracts the contact can be indirect. Some binding calls cover weakened binding; strength is not graded here.

By UniProt entry, the sequences of proteins in these tests, tags left out. Where a name states a change or a piece, a line headed by the entry shows the natural chain unless it says otherwise.
UniProt P04386: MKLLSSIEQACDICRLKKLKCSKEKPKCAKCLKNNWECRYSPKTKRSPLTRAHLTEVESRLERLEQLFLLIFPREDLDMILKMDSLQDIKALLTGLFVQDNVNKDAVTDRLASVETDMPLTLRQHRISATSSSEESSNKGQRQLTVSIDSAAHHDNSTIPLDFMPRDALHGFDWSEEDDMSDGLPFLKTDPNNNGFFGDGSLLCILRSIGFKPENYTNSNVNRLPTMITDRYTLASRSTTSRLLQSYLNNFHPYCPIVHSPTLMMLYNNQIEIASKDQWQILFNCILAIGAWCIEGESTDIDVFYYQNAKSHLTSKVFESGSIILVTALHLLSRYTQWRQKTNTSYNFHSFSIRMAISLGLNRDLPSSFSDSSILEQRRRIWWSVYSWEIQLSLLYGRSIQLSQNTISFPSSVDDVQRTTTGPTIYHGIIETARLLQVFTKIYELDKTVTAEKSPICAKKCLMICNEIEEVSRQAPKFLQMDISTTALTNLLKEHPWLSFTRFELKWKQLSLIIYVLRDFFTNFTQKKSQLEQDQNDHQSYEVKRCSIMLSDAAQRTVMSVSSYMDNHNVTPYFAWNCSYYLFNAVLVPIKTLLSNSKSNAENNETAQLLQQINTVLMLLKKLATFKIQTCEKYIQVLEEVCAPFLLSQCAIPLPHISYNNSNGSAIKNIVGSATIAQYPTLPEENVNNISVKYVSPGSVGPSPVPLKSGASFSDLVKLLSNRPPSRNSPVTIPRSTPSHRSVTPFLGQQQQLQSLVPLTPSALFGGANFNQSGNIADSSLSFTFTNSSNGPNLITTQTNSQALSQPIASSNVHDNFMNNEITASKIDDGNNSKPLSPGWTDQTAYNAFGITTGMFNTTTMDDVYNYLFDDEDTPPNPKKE
UniProt Q9JM13: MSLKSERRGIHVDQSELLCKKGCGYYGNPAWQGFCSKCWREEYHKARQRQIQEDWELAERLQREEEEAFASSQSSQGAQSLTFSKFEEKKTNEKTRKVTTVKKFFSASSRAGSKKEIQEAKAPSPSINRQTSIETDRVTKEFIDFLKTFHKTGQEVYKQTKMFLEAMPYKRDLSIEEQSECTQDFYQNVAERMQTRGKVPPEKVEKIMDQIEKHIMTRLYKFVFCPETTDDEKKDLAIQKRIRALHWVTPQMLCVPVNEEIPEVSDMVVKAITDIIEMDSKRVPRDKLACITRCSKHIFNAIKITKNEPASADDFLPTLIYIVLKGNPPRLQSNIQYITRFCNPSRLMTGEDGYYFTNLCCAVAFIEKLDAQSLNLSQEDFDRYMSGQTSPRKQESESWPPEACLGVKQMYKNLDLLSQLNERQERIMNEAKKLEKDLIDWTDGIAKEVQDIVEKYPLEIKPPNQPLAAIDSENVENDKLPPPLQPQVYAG
UniProt Q13153: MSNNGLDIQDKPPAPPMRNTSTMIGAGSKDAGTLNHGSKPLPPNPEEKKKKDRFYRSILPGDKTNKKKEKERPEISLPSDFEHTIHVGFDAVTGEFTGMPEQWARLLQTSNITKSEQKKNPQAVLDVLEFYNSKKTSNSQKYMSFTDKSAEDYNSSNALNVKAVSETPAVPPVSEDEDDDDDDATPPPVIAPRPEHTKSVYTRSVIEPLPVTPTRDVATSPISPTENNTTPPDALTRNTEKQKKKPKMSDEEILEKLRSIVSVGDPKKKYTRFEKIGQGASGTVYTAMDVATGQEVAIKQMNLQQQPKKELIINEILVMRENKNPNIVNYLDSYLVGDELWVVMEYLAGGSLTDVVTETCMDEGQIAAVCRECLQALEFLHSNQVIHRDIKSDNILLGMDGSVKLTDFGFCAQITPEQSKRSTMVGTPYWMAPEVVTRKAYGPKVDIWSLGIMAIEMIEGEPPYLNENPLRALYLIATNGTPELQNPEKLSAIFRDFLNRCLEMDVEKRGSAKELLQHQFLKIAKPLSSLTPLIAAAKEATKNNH

Key:
[1] = target: T1, wild-type mouse H-Ras expressed as DNA-binding fusion protein (mouse) (UniProt P04386+Q61411); test: summary sentence of the example (yeast two-hybrid and pull-down)
[2] = target: T1, wild-type mouse H-Ras expressed as DNA-binding fusion protein (mouse); test: yeast two-hybrid, beta-galactosidase assay
[3] = target: active Cdc42 (Cdc42-GTP) from lysates of mouse BMCMCs (mouse) (UniProt P60766); test: GST pull-down from cell lysate, Western blot with anti-Cdc42

## full-length mouse RabGEF1 expressed as GAL-4 activation domain fusion protein (from UniProt Q9JM13 1-491)
[1]
  binding: binds
[2]
  binding: binds

## C-terminal region of mouse RabGEF1 expressed as GAL-4 activation domain fusion protein (from UniProt Q9JM13 381-491)
[2]
  binding: binds

## GST-fusion protein containing the p21-binding domain (PBD) of human Pak1 (from UniProt Q13153 67-150)
[3]
  binding: binds
